Reference: the supplement of paper PMC11006884
The entries are a selection whose mix differs from that of the whole data set.

By UniProt entry, the sequences of proteins in these tests, tags left out. Where a name states a change or a piece, a line headed by the entry shows the natural chain unless it says otherwise.
UniProt P53396: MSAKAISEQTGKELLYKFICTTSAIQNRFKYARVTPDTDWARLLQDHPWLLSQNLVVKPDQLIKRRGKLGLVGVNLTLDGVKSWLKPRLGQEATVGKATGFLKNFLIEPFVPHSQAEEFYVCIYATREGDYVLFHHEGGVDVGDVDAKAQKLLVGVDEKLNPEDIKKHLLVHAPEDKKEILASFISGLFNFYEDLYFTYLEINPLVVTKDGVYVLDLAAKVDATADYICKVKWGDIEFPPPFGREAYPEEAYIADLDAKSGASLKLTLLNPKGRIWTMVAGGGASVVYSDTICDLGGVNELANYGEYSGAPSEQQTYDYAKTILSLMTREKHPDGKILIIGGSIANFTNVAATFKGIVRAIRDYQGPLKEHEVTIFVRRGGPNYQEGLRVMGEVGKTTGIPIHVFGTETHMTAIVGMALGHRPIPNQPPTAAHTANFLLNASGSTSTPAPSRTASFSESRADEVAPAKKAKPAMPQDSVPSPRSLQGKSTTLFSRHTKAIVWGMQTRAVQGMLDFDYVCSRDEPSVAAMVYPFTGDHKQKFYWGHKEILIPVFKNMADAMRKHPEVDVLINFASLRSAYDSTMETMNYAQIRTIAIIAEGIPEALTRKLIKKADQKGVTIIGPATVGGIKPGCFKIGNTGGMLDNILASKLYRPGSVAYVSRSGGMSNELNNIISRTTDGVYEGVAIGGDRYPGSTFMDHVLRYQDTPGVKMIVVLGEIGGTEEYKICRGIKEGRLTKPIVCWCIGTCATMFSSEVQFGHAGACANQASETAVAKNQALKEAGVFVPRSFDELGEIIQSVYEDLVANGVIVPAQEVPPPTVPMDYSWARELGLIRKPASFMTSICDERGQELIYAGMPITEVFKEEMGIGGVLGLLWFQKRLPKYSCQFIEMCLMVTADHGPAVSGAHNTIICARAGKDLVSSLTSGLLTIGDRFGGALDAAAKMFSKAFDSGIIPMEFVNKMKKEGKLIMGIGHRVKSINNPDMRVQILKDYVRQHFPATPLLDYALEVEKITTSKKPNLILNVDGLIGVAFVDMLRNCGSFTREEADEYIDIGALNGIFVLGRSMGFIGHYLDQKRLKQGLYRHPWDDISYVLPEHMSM
UniProt P52732: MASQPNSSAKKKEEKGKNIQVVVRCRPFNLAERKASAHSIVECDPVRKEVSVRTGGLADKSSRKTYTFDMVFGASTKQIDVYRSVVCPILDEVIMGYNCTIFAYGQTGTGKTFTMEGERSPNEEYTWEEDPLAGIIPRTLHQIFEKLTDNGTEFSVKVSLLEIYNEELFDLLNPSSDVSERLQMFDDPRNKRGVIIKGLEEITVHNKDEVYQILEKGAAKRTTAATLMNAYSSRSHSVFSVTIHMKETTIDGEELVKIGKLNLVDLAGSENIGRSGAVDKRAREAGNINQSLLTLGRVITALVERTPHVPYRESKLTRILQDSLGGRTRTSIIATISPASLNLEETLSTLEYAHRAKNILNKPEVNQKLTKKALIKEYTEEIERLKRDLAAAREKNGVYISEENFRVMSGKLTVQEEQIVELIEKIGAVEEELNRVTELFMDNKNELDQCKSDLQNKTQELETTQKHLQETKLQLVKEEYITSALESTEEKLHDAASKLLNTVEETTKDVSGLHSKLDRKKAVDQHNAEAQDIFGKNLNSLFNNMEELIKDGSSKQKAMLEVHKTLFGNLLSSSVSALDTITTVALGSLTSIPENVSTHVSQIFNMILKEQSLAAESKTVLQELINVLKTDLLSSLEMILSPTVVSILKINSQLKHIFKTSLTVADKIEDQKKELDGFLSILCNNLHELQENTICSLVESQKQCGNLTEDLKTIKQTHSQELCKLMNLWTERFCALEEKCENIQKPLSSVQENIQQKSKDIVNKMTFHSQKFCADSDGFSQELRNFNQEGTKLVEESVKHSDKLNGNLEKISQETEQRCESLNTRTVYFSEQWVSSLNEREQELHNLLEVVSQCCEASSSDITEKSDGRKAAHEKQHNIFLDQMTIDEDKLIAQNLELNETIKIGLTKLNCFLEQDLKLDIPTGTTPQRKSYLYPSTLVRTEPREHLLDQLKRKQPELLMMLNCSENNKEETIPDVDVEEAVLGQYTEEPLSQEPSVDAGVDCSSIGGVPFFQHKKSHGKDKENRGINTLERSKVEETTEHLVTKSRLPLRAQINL
UniProt P60891: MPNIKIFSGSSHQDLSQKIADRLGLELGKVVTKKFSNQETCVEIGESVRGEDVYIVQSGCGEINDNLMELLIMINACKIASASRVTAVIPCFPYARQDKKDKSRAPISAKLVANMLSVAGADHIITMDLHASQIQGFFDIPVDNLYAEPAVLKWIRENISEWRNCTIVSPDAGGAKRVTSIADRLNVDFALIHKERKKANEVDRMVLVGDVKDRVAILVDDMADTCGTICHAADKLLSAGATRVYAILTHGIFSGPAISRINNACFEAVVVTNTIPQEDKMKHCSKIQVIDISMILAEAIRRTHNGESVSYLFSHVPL
UniProt P60174, whole entry, looked up: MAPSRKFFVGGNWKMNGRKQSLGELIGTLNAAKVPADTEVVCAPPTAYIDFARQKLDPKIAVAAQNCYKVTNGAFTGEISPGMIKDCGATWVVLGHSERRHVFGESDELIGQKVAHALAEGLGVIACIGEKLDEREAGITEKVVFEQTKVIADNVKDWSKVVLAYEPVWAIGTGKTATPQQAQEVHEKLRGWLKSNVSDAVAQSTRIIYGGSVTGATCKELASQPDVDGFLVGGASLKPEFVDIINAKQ
UniProt P52888, whole entry, looked up: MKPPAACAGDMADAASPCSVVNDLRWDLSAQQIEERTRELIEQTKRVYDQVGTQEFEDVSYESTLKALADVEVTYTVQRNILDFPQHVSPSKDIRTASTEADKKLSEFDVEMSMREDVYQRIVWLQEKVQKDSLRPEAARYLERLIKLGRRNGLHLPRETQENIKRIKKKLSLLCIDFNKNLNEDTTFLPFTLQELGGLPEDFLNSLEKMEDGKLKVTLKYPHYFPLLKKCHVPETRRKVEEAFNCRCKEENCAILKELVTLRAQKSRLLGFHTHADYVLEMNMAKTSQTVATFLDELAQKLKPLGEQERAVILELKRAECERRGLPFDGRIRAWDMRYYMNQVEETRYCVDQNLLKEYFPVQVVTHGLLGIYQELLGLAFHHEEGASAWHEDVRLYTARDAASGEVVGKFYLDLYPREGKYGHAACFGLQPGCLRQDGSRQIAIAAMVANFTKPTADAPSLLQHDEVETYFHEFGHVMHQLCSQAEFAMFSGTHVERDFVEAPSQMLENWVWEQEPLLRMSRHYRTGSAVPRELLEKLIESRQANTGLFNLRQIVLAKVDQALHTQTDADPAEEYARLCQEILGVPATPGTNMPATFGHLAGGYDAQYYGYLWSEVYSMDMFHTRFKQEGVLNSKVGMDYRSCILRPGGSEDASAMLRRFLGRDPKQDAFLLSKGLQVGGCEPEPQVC
UniProt P55072, whole entry, looked up: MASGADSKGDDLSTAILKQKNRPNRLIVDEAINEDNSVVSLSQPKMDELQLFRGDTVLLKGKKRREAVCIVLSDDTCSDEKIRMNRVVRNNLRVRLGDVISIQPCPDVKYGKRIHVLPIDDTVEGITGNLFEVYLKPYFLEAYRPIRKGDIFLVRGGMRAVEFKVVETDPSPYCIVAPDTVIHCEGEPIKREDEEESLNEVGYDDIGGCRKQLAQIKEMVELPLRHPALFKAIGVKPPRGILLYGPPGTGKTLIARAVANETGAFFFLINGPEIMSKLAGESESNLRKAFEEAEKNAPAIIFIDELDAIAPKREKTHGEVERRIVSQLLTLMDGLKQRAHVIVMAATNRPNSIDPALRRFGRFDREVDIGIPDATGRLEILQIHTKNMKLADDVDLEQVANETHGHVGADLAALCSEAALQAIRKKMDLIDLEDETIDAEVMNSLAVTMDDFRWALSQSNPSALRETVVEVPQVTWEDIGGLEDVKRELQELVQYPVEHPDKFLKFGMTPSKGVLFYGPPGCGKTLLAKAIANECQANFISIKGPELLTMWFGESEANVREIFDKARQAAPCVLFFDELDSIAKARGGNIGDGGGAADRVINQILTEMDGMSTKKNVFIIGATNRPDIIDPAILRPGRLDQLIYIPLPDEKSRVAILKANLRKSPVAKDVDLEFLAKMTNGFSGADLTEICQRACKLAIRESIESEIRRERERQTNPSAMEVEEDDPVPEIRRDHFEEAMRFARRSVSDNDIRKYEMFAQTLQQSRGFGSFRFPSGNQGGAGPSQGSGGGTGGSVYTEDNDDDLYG
UniProt P55795: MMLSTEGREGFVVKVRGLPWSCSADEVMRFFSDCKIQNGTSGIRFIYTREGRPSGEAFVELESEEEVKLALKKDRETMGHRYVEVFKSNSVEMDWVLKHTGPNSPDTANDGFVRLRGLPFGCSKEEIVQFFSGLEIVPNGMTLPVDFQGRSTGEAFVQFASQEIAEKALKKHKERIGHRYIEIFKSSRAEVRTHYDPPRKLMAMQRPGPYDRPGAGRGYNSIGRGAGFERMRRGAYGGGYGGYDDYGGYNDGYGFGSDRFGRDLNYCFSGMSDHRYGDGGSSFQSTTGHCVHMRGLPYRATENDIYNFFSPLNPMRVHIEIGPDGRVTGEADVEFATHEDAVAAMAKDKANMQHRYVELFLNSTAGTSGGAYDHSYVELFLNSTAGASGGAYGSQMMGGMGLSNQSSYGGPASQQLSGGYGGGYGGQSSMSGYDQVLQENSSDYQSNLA
UniProt P55265: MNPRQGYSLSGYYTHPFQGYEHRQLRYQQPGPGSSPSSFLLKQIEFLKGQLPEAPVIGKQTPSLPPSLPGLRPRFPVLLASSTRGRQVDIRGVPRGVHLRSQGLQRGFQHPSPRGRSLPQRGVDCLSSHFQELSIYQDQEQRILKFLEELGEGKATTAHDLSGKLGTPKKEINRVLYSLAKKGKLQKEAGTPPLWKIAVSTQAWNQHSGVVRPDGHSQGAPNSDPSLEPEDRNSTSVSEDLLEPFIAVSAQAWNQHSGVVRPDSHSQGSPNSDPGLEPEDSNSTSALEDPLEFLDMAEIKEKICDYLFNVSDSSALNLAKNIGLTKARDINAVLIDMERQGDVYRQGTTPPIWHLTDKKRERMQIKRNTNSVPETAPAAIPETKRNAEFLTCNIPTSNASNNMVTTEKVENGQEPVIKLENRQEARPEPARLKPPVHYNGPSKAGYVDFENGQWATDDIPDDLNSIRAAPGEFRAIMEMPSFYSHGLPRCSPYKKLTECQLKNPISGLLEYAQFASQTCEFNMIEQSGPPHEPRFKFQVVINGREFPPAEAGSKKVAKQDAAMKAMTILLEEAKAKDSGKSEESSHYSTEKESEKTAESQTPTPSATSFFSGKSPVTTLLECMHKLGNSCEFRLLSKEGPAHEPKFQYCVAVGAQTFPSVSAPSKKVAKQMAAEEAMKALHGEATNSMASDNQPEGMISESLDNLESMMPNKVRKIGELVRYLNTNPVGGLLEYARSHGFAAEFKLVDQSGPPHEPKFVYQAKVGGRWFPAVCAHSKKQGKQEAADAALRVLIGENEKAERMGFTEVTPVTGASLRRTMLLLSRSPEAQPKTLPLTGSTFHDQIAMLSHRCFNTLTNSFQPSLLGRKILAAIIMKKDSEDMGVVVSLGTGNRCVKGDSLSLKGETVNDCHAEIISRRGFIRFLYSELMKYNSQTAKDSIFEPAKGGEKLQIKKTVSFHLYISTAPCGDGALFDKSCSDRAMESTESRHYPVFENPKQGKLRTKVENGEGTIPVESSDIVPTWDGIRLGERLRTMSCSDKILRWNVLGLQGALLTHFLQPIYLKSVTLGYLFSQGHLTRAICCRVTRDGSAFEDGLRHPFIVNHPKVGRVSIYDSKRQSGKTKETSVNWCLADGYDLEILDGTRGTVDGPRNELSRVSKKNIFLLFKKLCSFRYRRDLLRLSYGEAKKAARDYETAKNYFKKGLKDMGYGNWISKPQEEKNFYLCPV
UniProt P54136: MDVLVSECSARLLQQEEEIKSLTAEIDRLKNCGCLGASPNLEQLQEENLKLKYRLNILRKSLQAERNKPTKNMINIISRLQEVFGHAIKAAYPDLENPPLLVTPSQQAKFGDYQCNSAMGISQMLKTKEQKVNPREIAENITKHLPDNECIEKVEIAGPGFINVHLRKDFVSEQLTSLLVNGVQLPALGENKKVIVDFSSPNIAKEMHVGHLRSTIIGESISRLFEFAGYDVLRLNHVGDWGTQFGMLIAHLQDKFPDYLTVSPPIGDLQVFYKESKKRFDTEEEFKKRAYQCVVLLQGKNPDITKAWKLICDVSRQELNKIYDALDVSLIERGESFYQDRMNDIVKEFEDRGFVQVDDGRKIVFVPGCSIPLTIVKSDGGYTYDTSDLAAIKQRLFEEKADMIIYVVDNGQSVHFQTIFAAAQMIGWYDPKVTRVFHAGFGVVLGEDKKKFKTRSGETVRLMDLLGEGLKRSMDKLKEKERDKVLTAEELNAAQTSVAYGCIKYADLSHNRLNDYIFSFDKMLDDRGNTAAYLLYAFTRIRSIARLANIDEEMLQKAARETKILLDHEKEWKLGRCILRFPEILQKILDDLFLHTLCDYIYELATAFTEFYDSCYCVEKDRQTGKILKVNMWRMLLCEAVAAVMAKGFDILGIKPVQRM

compound: COC(=O)C#Cc1ccccc1 [methyl 3-phenylpropiolate]; experiment: log2 ratio of iodoacetamide-alkyne labeling of the cysteine site, DMSO over compound (competition); higher = stronger covalent engagement of the cysteine by the compound, active = 1 or more; details: 500 µM; treatment time 1 h; system: HEK293T cell lysate
Outline: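 HEK293T lysate (2 mg/mL) was incubated with electrophile (500 µM) or vehicle for 1 h at ambient temperature and then with iodoacetamide alkyne for 1 h. Labelled proteins were clicked to sCIP-TMT reagents, pooled, digested, enriched on streptavidin and measured by Orbitrap Eclipse LC-MS/MS with FAIMS, with FragPipe quantification. The per-cysteine log2 competition ratio is mean control-channel reporter intensity over mean compound-channel reporter intensity. Across three replicates with duplicate channels, cysteines quantified in only one replicate were excluded.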

| Target | log2 ratio of iodoacetamide-alkyne labeling |
| --- | --- |
| HIRA C1007 (UniProt P54198) | inactive: 0.379 |
| COPA C453 (UniProt P53621) | inactive: 0.527 |
| UniProt P62249_C25 | inactive: 0.47 |
| COPA C975 (UniProt P53621) | inactive: 0.0469 |
| UniProt P61619_C13 | inactive: -0.166 |
| ACLY C633 (UniProt P53396) | inactive: 0.16 |
| MSH6 C694 (UniProt P52701) | inactive: -0.35 |
| KIF11 C450 (UniProt P52732) | inactive: 0.0207 |
| NUBP1 C235 (UniProt P53384) | inactive: 0.337 |
| HSD17B4 C277 (UniProt P51659) | inactive: 0.0673 |
| UniProt P56134_C7 | inactive: 0.00348 |
| UniProt P61077_C85 | inactive: 0.317 |
| EIF6 C11 (UniProt P56537) | inactive: 0.103 |
| UniProt P61163_C222 | inactive: 0.293 |
| HCCS C46 (UniProt P53701) | inactive: 0.886 |
| UniProt P60891_C165 | inactive: -0.19 |
| NUBP1 C8 (UniProt P53384) | inactive: 0.762 |
| TPI1 C104 (UniProt P60174) | inactive: 0.0793 |
| PPP5C C452 (UniProt P53041) | inactive: 0.0827 |

| Target | log2 ratio of iodoacetamide-alkyne labeling |
| --- | --- |
| THOP1 C689 (UniProt P52888) | inactive: 0.174 |
| UniProt P55072_C522 | inactive: 0.173 |
| RPS3A C96 (UniProt P61247) | inactive: 0.0695 |
| PSMD4 C87 (UniProt P55036) | inactive: 0.0446 |
| UniProt P61978_C184 | inactive: 0.0026 |
| MARS C441 (UniProt P56192) | inactive: -0.00716 |
| HNRNPH2 C290 (UniProt P55795) | inactive: -0.0525 |
| UniProt P60228_C250 | inactive: 0.778 |
| TPI1 C79 (UniProt P60174) | inactive: 0.149 |
| MSH6 C1165 (UniProt P52701) | inactive: -0.0115 |
| UniProt P61978_C145 | inactive: 0.0391 |
| UniProt P55072_C209 | inactive: 0.132 |
| DRG2 C223 (UniProt P55039) | inactive: 0.133 |
| HNRNPF C267 (UniProt P52597) | inactive: 0.208 |
| ADAR C622 (UniProt P55265) | inactive: 0.15 |
| RARS C369 (UniProt P54136) | inactive: 0.254 |
| ACTR3 C12 (UniProt P61158) | inactive: 0.212 |
| NAP1L1 C132 (UniProt P55209) | inactive: 0.152 |
